Record: PubChem BioAssay AID743454 (Peter MacCallum Cancer Centre, 2014)

Purpose: 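Genes whose loss kills vorinostat-resistant colon cancer cells under vorinostat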 (primary screen)
Cell system: human HCT116-VR colon cancer cells, selected for vorinostat resistance
Reagents: siRNA pool against human genes, 40 nM siRNA pool
Timing: vorinostat for 24 h, read-out about 72 h after transfection
Conditions: vorinostat at 2.5 µM final
Read-out: 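Cell viability by CellTiter-Fluor and caspase 3/7 activity by luminescence, each scaled to mock wells per plate, duplicates averaged, then robust z-scored over all plates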
Direction: viability robust z-score: higher = more viable cells than screen typical; caspase robust z-score: higher = more caspase 3/7 activity than screen typical
Rule for the call: 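Hits are knock-downs in viability class RV1/RV2 or caspase class CA1/CA2, excluding ones that killed cells in the no-drug cell-count arm; hits then retested with single siRNAs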
Shown is an unselected part of about 18,000 deposited reagents. 450 of all reagents (2.5%) count as active. 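Single biological run; no consistent viability z cut-off exists, so the class columns, not z-scores, define the calls.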

SSR3 showed viability hit class no change; caspase hit class no change; viability robust z-score -1.3; caspase robust z-score 1.92; inactive.
Depletion of UBXN8 resulted in: viability hit class no change; caspase hit class no change; viability robust z-score 0.08; caspase robust z-score 1.12; inactive.
Against HAUS3 the deposit lists viability hit class no change; caspase hit class no change; viability robust z-score -0.13; caspase robust z-score -0.88; inactive.
NDUFAF2 gave viability hit class no change; caspase hit class no change; viability robust z-score 0.11; caspase robust z-score -0.86; inactive.
With knock-down of THG1L, the screen gave viability hit class no change; caspase hit class no change; viability robust z-score 0.39; caspase robust z-score -0.74; inactive.
COL16A1 scored viability hit class no change; caspase hit class no change; viability robust z-score -0.94; caspase robust z-score 0.47; inactive.
Knock-down of MAK16 came out at: viability hit class RV2 (reduced viability); caspase hit class no change; viability robust z-score -2.96; caspase robust z-score 1.31; active.
STMN3 scored viability hit class no change; caspase hit class no change; viability robust z-score -0.04; caspase robust z-score 3.52; inactive.
After knock-down of FOXR2, the record shows viability hit class no change; caspase hit class no change; viability robust z-score -0.32; caspase robust z-score -0.95; inactive.
BAIAP2L2 scored viability hit class no change; caspase hit class no change; viability robust z-score 0.74; caspase robust z-score -0.18; inactive.
Depletion of SEC24A gave: viability hit class no change; caspase hit class no change; viability robust z-score 0.74; caspase robust z-score -1; inactive.
With knock-down of OR2M3 the results were viability hit class no change; caspase hit class no change; viability robust z-score 0.08; caspase robust z-score 2.75; inactive.
With knock-down of H3C12 the results were viability hit class no change; caspase hit class no change; viability robust z-score -1.74; caspase robust z-score -0.3; inactive.
Knock-down of TSPO resulted in: viability hit class no change; caspase hit class no change; viability robust z-score 0.12; caspase robust z-score 1.65; inactive.

Entries above marked active, once more:
MAK16: viability hit class = RV2 (reduced viability); caspase hit class = no change; viability robust z-score = -2.96; caspase robust z-score = 1.31; call = active

The list goes on:
Knock-down of C6orf120 gave: viability hit class no change; caspase hit class no change; viability robust z-score 0.97; caspase robust z-score -0.22; inactive.
Silencing of STK25 came out at: viability hit class no change; caspase hit class no change; viability robust z-score 0.02; caspase robust z-score -0.6; inactive.
Against GZMA the deposit lists viability hit class no change; caspase hit class no change; viability robust z-score 0.4; caspase robust z-score -0.7; inactive.
RILPL1 scored viability hit class no change; caspase hit class no change; viability robust z-score 0.7; caspase robust z-score 0.23; inactive.
SLC22A10 showed viability hit class no change; caspase hit class no change; viability robust z-score -0.25; caspase robust z-score -0.7; inactive.
With knock-down of MBD3L1, the record shows viability hit class no change; caspase hit class no change; viability robust z-score 0.62; caspase robust z-score -0.84; inactive.
With knock-down of SLCO4C1 the results were viability hit class no change; caspase hit class no change; viability robust z-score -0.72; caspase robust z-score 1.65; inactive.
